Assay results taken from PubChem BioAssay AID624297 (National Center for Advancing Translational Sciences (NCATS), 2012).
This is a selection; strong and weak results do not stand in their true shares. Records with an inconclusive call do not appear. Calls of active or inactive are those of the source. Calls follow the shape of the dose curve; as a rule, active = well fitted activation curve with a large enough effect; inconclusive = small, poorly fitted or top-dose-only effect; inactive = no such curve, though single readings can be large or run the other way.
Potency is read from the fitted curve at half-maximal effect.

Assay: A quantitative high throughput screen for small molecules that induce DNA re-replication in SW480 colon adenocarcinoma cells. Also: nearly all actives have a fitted effect of over 55% in size.
Details: Hoechst DNA content imaging, 48 h; series mostly up to 46.1 µM
Source text: H Molecular Libraries Probe Production Network [MLPCN] NIH Chemical Genomics Center [NCGC] MLPCN Grant: Fast Track K99 CA136555 Assay Provider: Melvin DePamphilis, NICHD, NIH Assay Overview Eukaryotic cells normally restrict genome duplication to once per cell division. When this process is aberrant, DNA re-replication occurs when cells reinitiate DNA replication before the first round of replication is complete. DNA re-replication induces the DNA damage response, arrests cell proliferation, and triggers apoptosis. The cell cycle components cyclin A, Cdt-1, Cdc6 and geminin are critical regulators of this process and their misregulation results in DNA re-replication in normal and cancer cells. To identify compounds that induce re-replication in normal cells, an image-based assay was used to measure DNA content of nuclei, as detected by the fluorescent DNA binding dye, Hoechst. Cell nuclei were imaged by a fluorescence scanning plate imager and compounds that induce DNA re-replication were identified by the increase of nuclei with elevated fluorescence intensity
For screening, 250 cells in 5 uL/well were dispensed into black clear 1536-well plates (Aurora) using a solenoid-based dispenser. Following transfer of 23 nL compound or DMSO vehicle by a pin tool, the plates were incubated 48 hr at 37 C and 5% CO2. After addition of 1 uL/well Hoescht stain, the plates were incubated 40 min at 37 C, 5% CO2 and total intensity of fluorescent objects (nuclei) were enumerated by an Acumen Explorer Ex3 (TTP LabTech) fluorescence scanning plate imager (405 nm excitation, 500-530 nm emission). Keywords: NIH Roadmap, MLPCN, MLI, MLSMR, qHTS, NCGC, DNA replication, cancer
For `CNC1CCc2cc(OC)c(OC)c(OC)c2-c2ccc(SC)c(=O)cc21` (centres undefined), the Potency was active: 5.2 nM.
For `COc1cc2c(c(OC)c1OC)-c1ccc(SC)c(=O)cc1C(N)CC2` (centres undefined), the Potency was active: 58 nM.
In the case of `CS(=O)(=O)Nc1cccc2[nH]ncc12`, the Potency was “inactive”.
In the case of `COc1cc2c(c(OC)c1OC)-c1ccc(OC)c(=O)cc1C(N)CC2` (centres undefined), the Potency was active: 259 nM.
